Experimental data taken from the supplement of paper PMC8728848.
Some of the results follow.

Legend:
Experiment in all cases: glycan array binding signal (z-score within array); higher = stronger binding
Conditions in all cases: glycan notation: IUPAC condensed, linker removed
[1] = target: Gal(b1-4)GlcNAc(b1-3)Gal(b1-4)GlcNAc(b1-3)Gal(b1-4)GlcNAc(b1-3)Gal(b1-4)GlcNAc(b1-2)Man(a1-3)[Gal(b1-4)GlcNAc(b1-3)Gal(b1-4)GlcNAc(b1-3)Gal(b1-4)GlcNAc(b1-3)Gal(b1-4)GlcNAc(b1-2)Man(a1-6)]Man(b1-4)GlcNAc(b1-4)[Fuc(a1-6)]GlcNAc
Method in brief: (§1)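 The binding signal is a Z-score computed within each array. Data were drawn from 3228 arrays in the Consortium for Functional Glycomics database, restricted to those with a known protein sequence. Scores were averaged over arrays of the same protein sequence at different concentrations or buffers, and over linkers, and negative values can be taken as non-binding.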

[2] = target: Gal(b1-4)GlcNAc(b1-3)Gal(b1-4)GlcNAc(b1-3)Gal(b1-4)GlcNAc(b1-3)Gal(b1-4)GlcNAc(b1-2)[Gal(b1-4)GlcNAc(b1-3)Gal(b1-4)GlcNAc(b1-3)Gal(b1-4)GlcNAc(b1-3)Gal(b1-4)GlcNAc(b1-6)]Man(a1-6)[Gal(b1-4)GlcNAc(b1-3)Gal(b1-4)GlcNAc(b1-3)Gal(b1-4)GlcNAc(b1-3)Gal(b1-4)GlcNAc(b1-2)Man(a1-3)]Man(b1-4)GlcNAc(b1-4)[Fuc(a1-6)]GlcNAc
Method in brief: as §1

[3] = target: Gal(b1-4)GlcNAc(b1-3)Gal(b1-4)GlcNAc(b1-3)Gal(b1-4)GlcNAc(b1-3)Gal(b1-4)GlcNAc(b1-3)Gal(b1-4)GlcNAc(b1-2)Man(a1-3)[Gal(b1-4)GlcNAc(b1-3)Gal(b1-4)GlcNAc(b1-3)Gal(b1-4)GlcNAc(b1-3)Gal(b1-4)GlcNAc(b1-3)Gal(b1-4)GlcNAc(b1-2)Man(a1-6)]Man(b1-4)GlcNAc(b1-4)GlcNAc
Method in brief: as §1

[4] = target: Gal(b1-4)GlcNAc(b1-3)Gal(b1-4)GlcNAc(b1-3)Gal(b1-4)GlcNAc(b1-3)Gal(b1-4)GlcNAc(b1-3)Gal(b1-4)GlcNAc(b1-2)Man(a1-3)[Gal(b1-4)GlcNAc(b1-3)Gal(b1-4)GlcNAc(b1-3)Gal(b1-4)GlcNAc(b1-3)Gal(b1-4)GlcNAc(b1-3)Gal(b1-4)GlcNAc(b1-2)Man(a1-6)]Man(b1-4)GlcNAc(b1-4)[Fuc(a1-6)]GlcNAc
Method in brief: as §1

[5] = target: Gal(b1-4)GlcNAc(b1-3)Gal(b1-4)GlcNAc(b1-3)Gal(b1-4)GlcNAc(b1-3)Gal(b1-4)GlcNAc(b1-3)Gal(b1-4)GlcNAc(b1-2)[Gal(b1-4)GlcNAc(b1-3)Gal(b1-4)GlcNAc(b1-3)Gal(b1-4)GlcNAc(b1-3)Gal(b1-4)GlcNAc(b1-3)Gal(b1-4)GlcNAc(b1-6)]Man(a1-6)[Gal(b1-4)GlcNAc(b1-3)Gal(b1-4)GlcNAc(b1-3)Gal(b1-4)GlcNAc(b1-3)Gal(b1-4)GlcNAc(b1-3)Gal(b1-4)GlcNAc(b1-2)Man(a1-3)]Man(b1-4)GlcNAc(b1-4)[Fuc(a1-6)]GlcNAc
Method in brief: as §1

[6] = target: Gal(b1-4)GlcNAc(b1-3)Gal(b1-4)GlcNAc(b1-3)Gal(b1-4)GlcNAc(b1-3)Gal(b1-4)GlcNAc(b1-3)Gal(b1-4)GlcNAc(b1-3)Gal(b1-4)GlcNAc(b1-2)Man(a1-3)[Gal(b1-4)GlcNAc(b1-3)Gal(b1-4)GlcNAc(b1-3)Gal(b1-4)GlcNAc(b1-3)Gal(b1-4)GlcNAc(b1-3)Gal(b1-4)GlcNAc(b1-3)Gal(b1-4)GlcNAc(b1-2)Man(a1-6)]Man(b1-4)GlcNAc(b1-4)GlcNAc
Method in brief: as §1

[7] = target: Gal(b1-4)GlcNAc(b1-3)Gal(b1-4)GlcNAc(b1-3)GalNAc
Method in brief: as §1

[8] = target: Gal(b1-4)GlcNAc(b1-3)Gal(b1-4)GlcNAc(b1-3)[Gal(b1-4)GlcNAc(b1-3)Gal(b1-4)GlcNAc(b1-6)]GalNAc
Method in brief: as §1

[9] = target: Gal(b1-4)GlcNAc(b1-3)Gal(b1-4)GlcNAc(b1-6)[Gal(b1-3)]GalNAc
Method in brief: as §1

[10] = target: Gal(b1-4)GlcNAc(b1-3)Gal(b1-4)[Fuc(a1-3)]GlcNAc(b1-3)Gal(b1-4)[Fuc(a1-3)]GlcNAc
Method in brief: as §1

[11] = target: Gal(b1-4)GlcNAc(b1-3)GalNAc
Method in brief: as §1

[12] = target: Gal(b1-4)GlcNAc(b1-3)[Fuc(a1-3)GlcNAc(b1-6)]Gal(b1-4)Glc
Method in brief: as §1

[13] = target: Gal(b1-4)GlcNAc(b1-3)[Gal(b1-4)GlcNAc(b1-6)]Gal(b1-4)GlcNAc
Method in brief: as §1

[14] = target: Gal(b1-4)GlcNAc(b1-3)[GlcNAc(b1-6)]Gal(b1-4)GlcNAc
Method in brief: as §1

[15] = target: Gal(b1-4)GlcNAc(b1-6)Gal(b1-4)GlcNAc
Method in brief: as §1

[16] = target: Gal(b1-4)GlcNAc(b1-6)GalNAc
Method in brief: as §1

[17] = target: Gal(b1-4)GlcNAc(b1-6)[Gal(b1-3)]GalNAc
Method in brief: as §1

[18] = target: Gal(b1-4)GlcNAc(b1-6)[Gal(b1-4)GlcNAc(b1-3)]GalNAc
Method in brief: as §1

Gal(b1-4)GlcNAc6P = target: Gal(b1-4)GlcNAc6P
Method in brief: as §1

Gal(b1-6)Gal = target: Gal(b1-6)Gal
Method in brief: as §1

Gal3S(b1-3)GalNAc = target: Gal3S(b1-3)GalNAc
Method in brief: as §1

Gal3S(b1-3)GlcNAc = target: Gal3S(b1-3)GlcNAc
Method in brief: as §1

[19] = target: Gal3S(b1-3)[Fuc(a1-4)]GlcNAc
Method in brief: as §1

Gal3S(b1-4)Glc = target: Gal3S(b1-4)Glc
Method in brief: as §1

Gal3S(b1-4)Glc6S = target: Gal3S(b1-4)Glc6S
Method in brief: as §1

Gal3S(b1-4)GlcNAc = target: Gal3S(b1-4)GlcNAc
Method in brief: as §1

[20] = target: Gal3S(b1-4)[Fuc(a1-3)]Glc6S
Method in brief: as §1

[21] = target: Gal3S(b1-4)[Fuc(a1-3)]GlcNAc
Method in brief: as §1

[22] = target: Gal3S(b1-4)[Fuc(a1-3)]GlcNAc6S
Method in brief: as §1

Gal3S4S(b1-4)GlcNAc = target: Gal3S4S(b1-4)GlcNAc
Method in brief: as §1

Gal3S6S(b1-4)GlcNAc = target: Gal3S6S(b1-4)GlcNAc
Method in brief: as §1

Gal3S6S(b1-4)GlcNAc6S = target: Gal3S6S(b1-4)GlcNAc6S
Method in brief: as §1

Gal4S(b1-4)GlcNAc = target: Gal4S(b1-4)GlcNAc
Method in brief: as §1

Gal4S6S(b1-4)GlcNAc = target: Gal4S6S(b1-4)GlcNAc
Method in brief: as §1

Gal6P(b1-4)GlcNAc = target: Gal6P(b1-4)GlcNAc
Method in brief: as §1

Gal6S(b1-3)GlcNAc = target: Gal6S(b1-3)GlcNAc
Method in brief: as §1

Gal6S(b1-3)GlcNAc6S = target: Gal6S(b1-3)GlcNAc6S
Method in brief: as §1

Gal6S(b1-4)Glc = target: Gal6S(b1-4)Glc
Method in brief: as §1

B1: Mnn9-2N3 (Aspergillus fumigatus) (protein)
chain: MAVARRMRRTNPITLLLAAILAIGFFIFVLSPSTTSASPVKAGSASSSSTSQQRREDNAAENPLSPPTKPFFKSQPVRHDGQQAPPPVVQYNLNQLSSTSTSAANGERILILTPMARFVPEYWDNVVKLTYPHELISIGFIIPKNKEGNAALAALEAAIAKTQSGPIDKRFASISILRQDFEPPLQSQDEKERHKISNQKARRESMSRARNSLLFTTLGPATAWVLWLDADIVETPPTLIQDLTAHDHPVLVPNCYQRYYNSEKKKMDVRPYDYNSWIDSSTAQSMAAEMGPDEILLEGYAEMPTYRTLMAHLADTANPNPKKVIELDGVGGTALMVKAEVHRDGAMFPAFPFYHLVETEGFAKMAKRLGYSVYGLPDYFVSRNFFFFFFFFFFG
glycan array binding signal (z-score) [1]: 0.427 | glycan array binding signal (z-score) [2]: 1.27 | glycan array binding signal (z-score) [3]: 0.483 | glycan array binding signal (z-score) [4]: -1.85 | glycan array binding signal (z-score) [5]: -0.091 | glycan array binding signal (z-score) [6]: 0.92 | glycan array binding signal (z-score) [7]: -0.366 | glycan array binding signal (z-score) [8]: 0.581 | glycan array binding signal (z-score) [9]: -1.14 | glycan array binding signal (z-score) [10]: 0.024 | glycan array binding signal (z-score) [11]: -0.932 | glycan array binding signal (z-score) [12]: 0.135 | glycan array binding signal (z-score) [13]: -0.266 | glycan array binding signal (z-score) [14]: 0.182 | glycan array binding signal (z-score) [15]: -1.83 | glycan array binding signal (z-score) [16]: -2.2 | glycan array binding signal (z-score) [17]: -0.094 | glycan array binding signal (z-score) [18]: -0.485 | glycan array binding signal (z-score) (Gal(b1-4)GlcNAc6P): 0.29 | glycan array binding signal (z-score) (Gal(b1-6)Gal): -0.788 | glycan array binding signal (z-score) (Gal3S(b1-3)GalNAc): -0.11 | glycan array binding signal (z-score) (Gal3S(b1-3)GlcNAc): -0.224 | glycan array binding signal (z-score) [19]: 0.659 | glycan array binding signal (z-score) (Gal3S(b1-4)Glc): 3.44 | glycan array binding signal (z-score) (Gal3S(b1-4)Glc6S): 1.42 | glycan array binding signal (z-score) (Gal3S(b1-4)GlcNAc): 0.236 | glycan array binding signal (z-score) [20]: -1.27 | glycan array binding signal (z-score) [21]: -1.53 | glycan array binding signal (z-score) [22]: -1.09 | glycan array binding signal (z-score) (Gal3S4S(b1-4)GlcNAc): -0.968 | glycan array binding signal (z-score) (Gal3S6S(b1-4)GlcNAc): -2.67 | glycan array binding signal (z-score) (Gal3S6S(b1-4)GlcNAc6S): -3.05 | glycan array binding signal (z-score) (Gal4S(b1-4)GlcNAc): -0.089 | glycan array binding signal (z-score) (Gal4S6S(b1-4)GlcNAc): -0.381 | glycan array binding signal (z-score) (Gal6P(b1-4)GlcNAc): 2.57 | glycan array binding signal (z-score) (Gal6S(b1-3)GlcNAc): -0.363 | glycan array binding signal (z-score) (Gal6S(b1-3)GlcNAc6S): 2.52 | glycan array binding signal (z-score) (Gal6S(b1-4)Glc): -0.39
